Values from PubChem BioAssay AID1671195 (Yale University, 2021)
Here is one part, drawn at random, of about 22,000 deposited reagents. Over the whole deposit, about 1,510 (6.9%) got an active call. 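Active includes knockdowns raising or lowering LDL uptake; positive z-scores mean more uptake, negative mean less.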 Entries without a mark were called inactive.

Screen: 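Regulators of LDL receptor activity judged by labelled LDL uptake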 (primary screen)
Cell system: human Huh7 hepatoma cells
Reagents: siRNA pool against human genes, 18 nM
Time to read-out: about 2 to 2.5 days of knockdown, then 8 h LDL uptake
Challenge: DiI-labelled LDL at 30 µg/ml for 8 h, in lipoprotein-deficient serum medium
Measurement: 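Fluorescent LDL signal imaged in cells, scaled to the plate median, robust z-score for each replicate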
Reading the numbers: robust z-score: higher = more LDL uptake after knockdown
Call rule: 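Active when two or more replicates show a robust z-score above 2 or below -2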

LOC441777 (retired record)
- robust z-score, replicate 1: 0.79
- robust z-score, replicate 2: 1.32
- robust z-score, replicate 3: 0.941

CDC20B
- robust z-score, replicate 1: -1.01
- robust z-score, replicate 2: -0.736
- robust z-score, replicate 3: -0.772

GPC6
- robust z-score, replicate 1: 2.8 (active)
- robust z-score, replicate 2: 2.5
- robust z-score, replicate 3: 1.44

NKAIN4
- robust z-score, replicate 1: -0.0892
- robust z-score, replicate 2: 0.692
- robust z-score, replicate 3: 0.52

EVA1B
- robust z-score, replicate 1: 1.16
- robust z-score, replicate 2: 0.706
- robust z-score, replicate 3: 1.05

GABARAPL1
- robust z-score, replicate 1: 2.36
- robust z-score, replicate 2: 1.64
- robust z-score, replicate 3: 1.32

STAM
- robust z-score, replicate 1: 1.28
- robust z-score, replicate 2: 0.764
- robust z-score, replicate 3: 0.466

ARSL
- robust z-score, replicate 1: 5.09 (active)
- robust z-score, replicate 2: 4.47
- robust z-score, replicate 3: 3.83

SKOR1
- robust z-score, replicate 1: 1.84
- robust z-score, replicate 2: 0.893
- robust z-score, replicate 3: 0.493

LRCH4
- robust z-score, replicate 1: -0.0867
- robust z-score, replicate 2: -0.375
- robust z-score, replicate 3: -1.1

SF3B6
- robust z-score, replicate 1: -1.24
- robust z-score, replicate 2: 0.775
- robust z-score, replicate 3: -0.118

SERTAD3
- robust z-score, replicate 1: 2.65 (active)
- robust z-score, replicate 2: 2.33
- robust z-score, replicate 3: 1.47

SPHAR (retired record)
- robust z-score, replicate 1: 1.02
- robust z-score, replicate 2: -0.497
- robust z-score, replicate 3: 0.778

RPL26L1
- robust z-score, replicate 1: -0.733
- robust z-score, replicate 2: -1.95
- robust z-score, replicate 3: -1.71

ITGAL
- robust z-score, replicate 1: -0.468
- robust z-score, replicate 2: -1.11
- robust z-score, replicate 3: -1.42

EXOC3L1
- robust z-score, replicate 1: -0.401
- robust z-score, replicate 2: -0.313
- robust z-score, replicate 3: -0.259

RYK
- robust z-score, replicate 1: 1.22
- robust z-score, replicate 2: 0.507
- robust z-score, replicate 3: 0.317

NR1H3
- robust z-score, replicate 1: -1.05
- robust z-score, replicate 2: -0.247
- robust z-score, replicate 3: 0.0917

KRT25
- robust z-score, replicate 1: -0.245
- robust z-score, replicate 2: -0.0167
- robust z-score, replicate 3: -0.284

LOC442130 (retired record)
- robust z-score, replicate 1: -1.04
- robust z-score, replicate 2: -1.32
- robust z-score, replicate 3: -1.13

TAS2R19
- robust z-score, replicate 1: 0.772
- robust z-score, replicate 2: 0.689
- robust z-score, replicate 3: 0.89

LINC01559
- robust z-score, replicate 1: 0.0538
- robust z-score, replicate 2: 0.31
- robust z-score, replicate 3: 0.0314

LACC1
- robust z-score, replicate 1: -0.205
- robust z-score, replicate 2: -0.671
- robust z-score, replicate 3: 0.692

PSG10P
- robust z-score, replicate 1: -1.23
- robust z-score, replicate 2: -1.63
- robust z-score, replicate 3: -1.44
